Patent publication US20250282720A1, “ALKYLSULFENYL THIOCARBONATES: PRECURSORS TO HYDROPERSULFIDES POTENTLY ATTENUATE OXIDATIVE STRESS” (The Johns Hopkins University, priority 2021, published 2025)
The name of at least one read-out is uncertain.

Assay: Kinetics of RSSH release (precursor hydrolysis) in the presence of MMTS, monitored by HPLC
Type: physicochemical
Conditions: precursor 100 μM, MMTS 1 mM, pH 7.4 PBS containing DTPA, 37° C.
Method: After confirming RSSH generation from 1a, the kinetics of RSSH release from alkylsulfenyl thiocarbonates in the presence of MMTS was analyzed by high-performance liquid chromatography (HPLC). […] First-order rate constants were obtained by plotting the precursor decay and phenol byproduct formation as a function of time. […] In addition, the effect of pH on the kinetics of RSSH release also was examined.
The RSSH release kinetics for precursors containing a variety of para-substituted phenols were then compared. It was hoped to decrease the rate of RSSH release through the introduction of electron-donating groups. Indeed, a small decrease in the RSSH release rate from 1b, equipped with a 4-Me substituent (137±4 min) (Table 1) was observed.
MMTS (100 μL, 50 mM) was added in pH 7.4 phosphate buffer saline (4.85 mL) containing the DTPA (100 μM) as metal chelator. This solution was preincubated for 10 min at 37° C. and then precursor 1a-f or 8 (50 μL, 10 mM) were independently added into the mixture (total volume=5 mL). The resulting solution was incubated at 37° C. At different time points, an aliquot of 300 μL was taken and quenched with 300 μL 0.1% formic acid solution. These samples were stored at 0° C. until HPLC analysis was performed. […] The elution was monitored by a UV detector at 240 and 275 nm. […]

## COC(=O)C(NC(C)=O)C(C)(C)SSC(=O)Oc1ccccc1 (stereo not shown) [Precursor 1a, Methyl 2-acetamido-3-methyl-3-((phenoxycarbonyl)disulfaneyl)butanoate]
  t1/2 (min), precursor decay / RSSH release: 129 ± 2 min
